Measurements: the supplement of paper PMC8728848
Some of the results follow.

How the values were obtained:
Test in all cases: glycan array binding signal (z-score within array); higher = stronger binding
Conditions in all cases: glycan notation: IUPAC condensed, linker removed
[1] = biological target: GlcNAc(b1-2)[GlcNAc(b1-4)]Man(a1-3)[GlcNAc(b1-4)][GlcNAc(b1-2)Man(a1-6)]Man(b1-4)GlcNAc(b1-4)GlcNAc
Procedure, shortened: (§1)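 Glycan array data were curated from 3228 arrays in the Consortium for Functional Glycomics database and kept only where the protein sequence was available. Glycan names were converted to IUPAC-condensed notation, and columns mapping to the same glycan were averaged. The binding signal is a within-array Z-score, averaged across arrays of the same protein sequence at different concentrations or buffers and across linkers. Negative Z-scores can be read as non-binding.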

[2] = biological target: GlcNAc(b1-2)[GlcNAc(b1-4)]Man(a1-3)[GlcNAc(b1-4)][GlcNAc(b1-2)[GlcNAc(b1-6)]Man(a1-6)]Man(b1-4)GlcNAc(b1-4)GlcNAc
Procedure, shortened: as §1

[3] = biological target: GlcNAc(b1-2)[GlcNAc(b1-4)]Man(a1-3)[GlcNAc(b1-4)][GlcNAc(b1-2)[GlcNAc(b1-6)]Man(a1-6)]Man(b1-4)GlcNAc(b1-4)[Fuc(a1-6)]GlcNAc
Procedure, shortened: as §1

[4] = biological target: GlcNAc(b1-2)[GlcNAc(b1-6)]Man(a1-6)[GlcNAc(b1-2)Man(a1-3)]Man(b1-4)GlcNAc(b1-4)GlcNAc
Procedure, shortened: as §1

[5] = biological target: GlcNAc(b1-2)[GlcNAc(b1-6)]Man(a1-6)[GlcNAc(b1-2)Man(a1-3)]Man(b1-4)GlcNAc(b1-4)[Fuc(a1-6)]GlcNAc
Procedure, shortened: as §1

[6] = biological target: GlcNAc(b1-2)[GlcNAc(b1-6)]Man(a1-6)[GlcNAc(b1-4)][GlcNAc(b1-2)Man(a1-3)]Man(b1-4)GlcNAc(b1-4)GlcNAc
Procedure, shortened: as §1

[7] = biological target: GlcNAc(b1-3)Fuc
Procedure, shortened: as §1

[8] = biological target: GlcNAc(b1-3)Gal
Procedure, shortened: as §1

[9] = biological target: GlcNAc(b1-3)Gal(b1-3)GalNAc
Procedure, shortened: as §1

[10] = biological target: GlcNAc(b1-3)Gal(b1-4)Glc
Procedure, shortened: as §1

[11] = biological target: GlcNAc(b1-3)Gal(b1-4)GlcNAc
Procedure, shortened: as §1

[12] = biological target: GlcNAc(b1-3)Gal(b1-4)GlcNAc(b1-2)Man(a1-3)[GlcNAc(b1-3)Gal(b1-4)GlcNAc(b1-2)Man(a1-6)]Man(b1-4)GlcNAc(b1-4)GlcNAc
Procedure, shortened: as §1

[13] = biological target: GlcNAc(b1-3)Gal(b1-4)GlcNAc(b1-2)Man(a1-3)[GlcNAc(b1-3)Gal(b1-4)GlcNAc(b1-2)Man(a1-6)]Man(b1-4)GlcNAc(b1-4)[Fuc(a1-6)]GlcNAc
Procedure, shortened: as §1

[14] = biological target: GlcNAc(b1-3)Gal(b1-4)GlcNAc(b1-2)[GlcNAc(b1-3)Gal(b1-4)GlcNAc(b1-6)]Man(a1-6)[GlcNAc(b1-3)Gal(b1-4)GlcNAc(b1-2)Man(a1-3)]Man(b1-4)GlcNAc(b1-4)GlcNAc
Procedure, shortened: as §1

[15] = biological target: GlcNAc(b1-3)Gal(b1-4)GlcNAc(b1-3)Gal(b1-4)GlcNAc
Procedure, shortened: as §1

[16] = biological target: GlcNAc(b1-3)Gal(b1-4)GlcNAc(b1-3)Gal(b1-4)GlcNAc(b1-2)Man(a1-3)[GlcNAc(b1-3)Gal(b1-4)GlcNAc(b1-3)Gal(b1-4)GlcNAc(b1-2)Man(a1-6)]Man(b1-4)GlcNAc(b1-4)GlcNAc
Procedure, shortened: as §1

[17] = biological target: GlcNAc(b1-3)Gal(b1-4)GlcNAc(b1-3)Gal(b1-4)GlcNAc(b1-2)Man(a1-3)[GlcNAc(b1-3)Gal(b1-4)GlcNAc(b1-3)Gal(b1-4)GlcNAc(b1-2)Man(a1-6)]Man(b1-4)GlcNAc(b1-4)[Fuc(a1-6)]GlcNAc
Procedure, shortened: as §1

[18] = biological target: GlcNAc(b1-3)Gal(b1-4)GlcNAc(b1-3)Gal(b1-4)GlcNAc(b1-2)[GlcNAc(b1-3)Gal(b1-4)GlcNAc(b1-3)Gal(b1-4)GlcNAc(b1-6)]Man(a1-6)[GlcNAc(b1-3)Gal(b1-4)GlcNAc(b1-3)Gal(b1-4)GlcNAc(b1-2)Man(a1-3)]Man(b1-4)GlcNAc(b1-4)[Fuc(a1-6)]GlcNAc
Procedure, shortened: as §1

[19] = biological target: GlcNAc(b1-3)Gal(b1-4)GlcNAc(b1-3)Gal(b1-4)GlcNAc(b1-3)Gal(b1-4)GlcNAc(b1-2)Man(a1-3)[GlcNAc(b1-3)Gal(b1-4)GlcNAc(b1-3)Gal(b1-4)GlcNAc(b1-3)Gal(b1-4)GlcNAc(b1-2)Man(a1-6)]Man(b1-4)GlcNAc(b1-4)GlcNAc
Procedure, shortened: as §1

[20] = biological target: GlcNAc(b1-3)Gal(b1-4)GlcNAc(b1-3)Gal(b1-4)GlcNAc(b1-3)Gal(b1-4)GlcNAc(b1-2)Man(a1-3)[GlcNAc(b1-3)Gal(b1-4)GlcNAc(b1-3)Gal(b1-4)GlcNAc(b1-3)Gal(b1-4)GlcNAc(b1-2)Man(a1-6)]Man(b1-4)GlcNAc(b1-4)[Fuc(a1-6)]GlcNAc
Procedure, shortened: as §1

[21] = biological target: GlcNAc(b1-3)Gal(b1-4)GlcNAc(b1-3)Gal(b1-4)GlcNAc(b1-3)Gal(b1-4)GlcNAc(b1-2)[GlcNAc(b1-3)Gal(b1-4)GlcNAc(b1-3)Gal(b1-4)GlcNAc(b1-3)Gal(b1-4)GlcNAc(b1-6)]Man(a1-6)[GlcNAc(b1-3)Gal(b1-4)GlcNAc(b1-3)Gal(b1-4)GlcNAc(b1-3)Gal(b1-4)GlcNAc(b1-2)Man(a1-3)]Man(b1-4)GlcNAc(b1-4)[Fuc(a1-6)]GlcNAc
Procedure, shortened: as §1

[22] = biological target: GlcNAc(b1-3)Gal(b1-4)GlcNAc(b1-3)Gal(b1-4)GlcNAc(b1-3)Gal(b1-4)GlcNAc(b1-3)Gal(b1-4)GlcNAc(b1-2)Man(a1-3)[GlcNAc(b1-3)Gal(b1-4)GlcNAc(b1-3)Gal(b1-4)GlcNAc(b1-3)Gal(b1-4)GlcNAc(b1-3)Gal(b1-4)GlcNAc(b1-2)Man(a1-6)]Man(b1-4)GlcNAc(b1-4)GlcNAc
Procedure, shortened: as §1

[23] = biological target: GlcNAc(b1-3)Gal(b1-4)GlcNAc(b1-3)Gal(b1-4)GlcNAc(b1-3)Gal(b1-4)GlcNAc(b1-3)Gal(b1-4)GlcNAc(b1-2)Man(a1-3)[GlcNAc(b1-3)Gal(b1-4)GlcNAc(b1-3)Gal(b1-4)GlcNAc(b1-3)Gal(b1-4)GlcNAc(b1-3)Gal(b1-4)GlcNAc(b1-2)Man(a1-6)]Man(b1-4)GlcNAc(b1-4)[Fuc(a1-6)]GlcNAc
Procedure, shortened: as §1

[24] = biological target: GlcNAc(b1-3)Gal(b1-4)GlcNAc(b1-3)Gal(b1-4)GlcNAc(b1-3)Gal(b1-4)GlcNAc(b1-3)Gal(b1-4)GlcNAc(b1-2)[GlcNAc(b1-3)Gal(b1-4)GlcNAc(b1-3)Gal(b1-4)GlcNAc(b1-3)Gal(b1-4)GlcNAc(b1-3)Gal(b1-4)GlcNAc(b1-6)]Man(a1-6)[GlcNAc(b1-3)Gal(b1-4)GlcNAc(b1-3)Gal(b1-4)GlcNAc(b1-3)Gal(b1-4)GlcNAc(b1-3)Gal(b1-4)GlcNAc(b1-2)Man(a1-3)]Man(b1-4)GlcNAc(b1-4)[Fuc(a1-6)]GlcNAc
Procedure, shortened: as §1

[25] = biological target: GlcNAc(b1-3)Gal(b1-4)GlcNAc(b1-3)Gal(b1-4)GlcNAc(b1-3)GalNAc
Procedure, shortened: as §1

[26] = biological target: GlcNAc(b1-3)Gal(b1-4)GlcNAc(b1-3)GalNAc
Procedure, shortened: as §1

[27] = biological target: GlcNAc(b1-3)Gal(b1-4)GlcNAc(b1-3)[GlcNAc(b1-3)Gal(b1-4)GlcNAc(b1-3)]GalNAc
Procedure, shortened: as §1

[28] = biological target: GlcNAc(b1-3)Gal(b1-4)GlcNAc(b1-6)[Gal(b1-3)]GalNAc
Procedure, shortened: as §1

[29] = biological target: GlcNAc(b1-3)Gal(b1-4)GlcNAc(b1-6)[GlcNAc(b1-3)Gal(b1-3)]GalNAc
Procedure, shortened: as §1

[30] = biological target: GlcNAc(b1-3)Gal(b1-4)GlcNAc(b1-6)[GlcNAc(b1-3)]Gal(b1-4)GlcNAc
Procedure, shortened: as §1

[31] = biological target: GlcNAc(b1-3)GalNAc
Procedure, shortened: as §1

[32] = biological target: GlcNAc(b1-3)Man
Procedure, shortened: as §1

[33] = biological target: GlcNAc(b1-3)[GlcNAc(b1-4)][GlcNAc(b1-6)]GlcNAc
Procedure, shortened: as §1

[34] = biological target: GlcNAc(b1-3)[GlcNAc(b1-6)]Gal(b1-4)GlcNAc
Procedure, shortened: as §1

[35] = biological target: GlcNAc(b1-3)[GlcNAc(b1-6)]GalNAc
Procedure, shortened: as §1

[36] = biological target: GlcNAc(b1-4)Gal(b1-4)GlcNAc
Procedure, shortened: as §1

[37] = biological target: GlcNAc(b1-4)GlcNAc
Procedure, shortened: as §1

[38] = biological target: GlcNAc(b1-4)GlcNAc(b1-4)GlcNAc
Procedure, shortened: as §1

B1: AT1G77380(17) (Arabidopsis thaliana), Q39134 (protein)
chain: MVQNHQTVLAVDMPQTGGSKYLDDDGKNKRTGSVWTASAHIITAVIGSGVLSLAWATAQLGWLAGPVVMLLFSAVTYFTSSLLAACYRSGDPISGKRNYTYMDAVRSNLGGVKVTLCGIVQYLNIFGVAIGYTIASAISMMAIKRSNCFHKSGGKDPCHMNSNPYMIAFGLVQILFSQIPDFDQLWWLSILAAVMSFTYSSAGLALGIAQVVVNGKVKGSLTGISIGAVTETQKIWRTFQALGDIAFAYSYSIILIEIQDTVKSPPSEEKTMKKATLVSVSVTTMFYMLCGCMGYAAFGDLSPGNLLTGFGFYNPYWLLDIANAAIVIHLIGAYQVYCQPLFAFIEKQASIQFPDSEFIAKDIKIPIPGFKPLRLNVFRLIWRTVFVIITTVISMLLPFFNDVVGLLGALGFWPLTVYFPVEMYIAQKKIPRWSTRWVCLQVFSLGCLVVSIAAAAGSIAGVLLDLKSYKPFRSEY
glycan array binding signal (z-score) [1]: -0.82 | glycan array binding signal (z-score) [2]: -0.887 | glycan array binding signal (z-score) [3]: -0.642 | glycan array binding signal (z-score) [4]: -0.487 | glycan array binding signal (z-score) [5]: 1.04 | glycan array binding signal (z-score) [6]: -0.522 | glycan array binding signal (z-score) [7]: -0.685 | glycan array binding signal (z-score) [8]: -0.826 | glycan array binding signal (z-score) [9]: -0.035 | glycan array binding signal (z-score) [10]: -0.394 | glycan array binding signal (z-score) [11]: 1.08 | glycan array binding signal (z-score) [12]: -0.699 | glycan array binding signal (z-score) [13]: 1.74 | glycan array binding signal (z-score) [14]: 0.57 | glycan array binding signal (z-score) [15]: 0.745 | glycan array binding signal (z-score) [16]: -0.439 | glycan array binding signal (z-score) [17]: 0.853 | glycan array binding signal (z-score) [18]: 0.854 | glycan array binding signal (z-score) [19]: -0.612 | glycan array binding signal (z-score) [20]: 0.989 | glycan array binding signal (z-score) [21]: 1.21 | glycan array binding signal (z-score) [22]: -0.46 | glycan array binding signal (z-score) [23]: -0.413 | glycan array binding signal (z-score) [24]: -0.237 | glycan array binding signal (z-score) [25]: -0.766 | glycan array binding signal (z-score) [26]: -0.747 | glycan array binding signal (z-score) [27]: -0.801 | glycan array binding signal (z-score) [28]: -0.67 | glycan array binding signal (z-score) [29]: -0.352 | glycan array binding signal (z-score) [30]: 2.23 | glycan array binding signal (z-score) [31]: -0.766 | glycan array binding signal (z-score) [32]: 1.58 | glycan array binding signal (z-score) [33]: 2.47 | glycan array binding signal (z-score) [34]: 0.495 | glycan array binding signal (z-score) [35]: 0.803 | glycan array binding signal (z-score) [36]: 0.6 | glycan array binding signal (z-score) [37]: 0.009 | glycan array binding signal (z-score) [38]: 0.38
